One molecule from paper PMC9239266 can be followed below.

In the assay the target is T1, Flag-RFP-CopC (full-length, WT) (Chromobacterium violaceum) (UniProt Q7NWF2).
T1 sequence: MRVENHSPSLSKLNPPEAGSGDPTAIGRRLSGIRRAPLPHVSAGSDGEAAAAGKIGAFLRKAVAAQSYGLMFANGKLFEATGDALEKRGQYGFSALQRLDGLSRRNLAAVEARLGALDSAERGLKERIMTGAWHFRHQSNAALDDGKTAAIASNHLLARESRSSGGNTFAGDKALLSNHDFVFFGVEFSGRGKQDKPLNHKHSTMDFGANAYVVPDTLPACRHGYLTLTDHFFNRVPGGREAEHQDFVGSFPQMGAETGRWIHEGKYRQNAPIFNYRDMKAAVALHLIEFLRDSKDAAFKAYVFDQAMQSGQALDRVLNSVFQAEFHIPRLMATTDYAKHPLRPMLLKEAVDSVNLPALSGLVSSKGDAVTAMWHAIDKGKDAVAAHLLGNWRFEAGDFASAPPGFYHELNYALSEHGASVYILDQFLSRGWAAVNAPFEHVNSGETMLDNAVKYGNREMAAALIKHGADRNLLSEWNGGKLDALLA
As to the kind of experiment: affinity purification with mass spectrometry.

No constants are given. Whether binding was seen depends on the method and setting. In cells and extracts the contact can be indirect. These calls come from enrichment with a bait or labelling near it, and not all partners need be listed. Where a sequence is shown, tags or fusion partners need not be part of it.

B1: caspase-7 (endogenous) (enzyme, UniProt P55210 1-303)
chain: MADDQGCIEEQGVEDSANEDSVDAKPDRSSFVPSLFSKKKKNVTMRSIKTTRDRVPTYQYNMNFEKLGKCIIINNKNFDKVTGMGVRNGTDKDAEALFKCFRSLGFDVIVYNDCSCAKMQDLLKKASEEDHTNAACFACILLSHGEENVIYGKDGVTPIKDLTAHFRGDRCKTLLEKPKLFFIQACRGTELDDGIQADSGPINDTDANPRYKIPVEADFLFAYSTVPGYYSWRSPGRGSWFVQALCSILEEHGKDLEIMQILTRVNDRVARHFESQSDDPHFHEKKQIPCVVSMLTKELYFSQ
On to B1, for which the binding entry is “binds”.
